# Source: the supplement of paper PMC3334620
# Over roughly 33,000 sequences, “E-score (-0.5 to 0.5)” has its median near -8e-05; the highest 2% begin near 0.23. Some of the results follow.
# Target: T1, Nrg2 (UniProt P38082)
# T1 sequence: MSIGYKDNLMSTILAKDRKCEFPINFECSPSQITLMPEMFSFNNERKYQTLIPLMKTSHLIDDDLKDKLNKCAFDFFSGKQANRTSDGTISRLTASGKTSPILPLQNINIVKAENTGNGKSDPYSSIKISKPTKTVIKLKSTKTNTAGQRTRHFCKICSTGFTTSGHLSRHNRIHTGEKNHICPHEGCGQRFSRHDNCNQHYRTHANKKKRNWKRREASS
# Assay: PBM E-score (8-mer binding enrichment) (E-score (-0.5 to 0.5)); higher = stronger / more preferred TF binding
# Conditions: protein concentration: 100 nM; construct: GST-full length
# Procedure, shortened: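 Bound GST-tagged yeast transcription factors, applied at about 100-200 nM to double-stranded universal all-10-mer Agilent arrays, were detected with fluorescent anti-GST. Scans were normalised with masliner. A modified Wilcoxon-Mann-Whitney statistic, the E-score, was assigned to each ungapped eight-base word pooled with its reverse complement by the Universal PBM Analysis Suite.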
row,Sequence,PBM E-score
1,CGCGTATC,0.051
2,AGTTCTGA,0.00934
3,CAACTTCA,-0.0159
4,TGGGAACA,2e-05
5,ATAAGACA,-0.0576
6,AAAGGGCA,-0.042
7,CTGCTTAC,-0.00953
8,ACAACAGC,0.0433
9,AGCCCACG,-0.109
10,ATCAATCC,0.181
11,CCGTCGAA,-0.0955
12,ACGAGGTA,0.0253
13,AAATATTA,0.247
14,GTGGACAC,-0.11
15,CCCCATAG,-0.113
16,CAACAATG,0.168
17,CGTTCCCA,-0.174
18,CATATTTC,-0.0462
19,CCGATTGC,0.0444
20,AGCATCAG,-0.0252
21,ATAGTCCA,0.139
22,CTTGAAAG,-0.0754
23,CTATAGGC,-0.156
24,GCGCGAGC,0.0479
25,CCACCGAG,-0.0186

row,Sequence,PBM E-score
1,GGGCAACC,-0.0673
2,ACTTGTAT,0.0894
3,ACACTATG,0.0263
4,AGCTCAAG,-0.187
5,CCGCAAAC,0.0396
6,TACCCAAA,0.058
7,CTCACTCC,-0.165
8,CTGAGTTC,0.165
9,GGGGTGAC,-0.0804
10,GCACGCGA,0.0938
11,CTAAGTCC,-0.0517
12,AAATGCTG,0.0535
13,AGCGATGG,-0.0464
14,CTCAGTAA,-0.137
15,CTGGCCGC,-0.00936
16,GAATAAGA,-0.00457
17,CTTGGTGA,-0.0195
18,CCTGAGTA,0.0982
19,AATTAAGC,0.115
20,AAGCCAAA,-0.0721
21,ACGTTGAG,-0.101
22,AACTATGC,0.157
23,CTTTAACC,-0.0797
24,CCGGAAGG,-0.0304
25,TAGAATAA,-0.0123

row,Sequence,PBM E-score
1,ATAAACTG,0.101
2,CATAGCCC,-0.194
3,AAATTATA,0.175
4,CATCTGGC,-0.0965
5,CATTTCGA,0.148
6,GAGCGGGA,-0.0155
7,TCATTGAA,-0.122
8,CTGGAATC,-0.164
9,GGGCACAC,-0.0905
10,CACAGGCC,-0.0407
11,ACCCTTTA,0.203
12,CAATATCG,0.105
13,ACGGCAAA,0.107
14,AGCCCCCC,-0.378
15,GCTTAGGA,-0.132
16,ATTATAAG,0.118
17,GAGGGCAC,-0.111
18,CCATTACA,0.183
19,CGGAGCCA,-0.19
20,CATCGTGC,-0.0212
21,ATCCCGCA,0.08
22,AACCGTCG,-0.151
23,CCTATGCG,0.0257
24,GTCCTTGA,-0.221
25,AAAAGCGA,0.124

row,Sequence,PBM E-score
1,ATGCCCCC,-0.222
2,AACCCCCC,-0.386
3,CTAACTGC,-0.0704
4,CGCAGAGC,-0.0583
5,GCATCTTA,0.199
6,ACCTACAG,0.169
7,CTCCGTGA,-0.0834
8,GTACTAAC,0.0447
9,CATCAAGG,-0.126
10,GTCGCTGA,-0.0768
11,GACCACAA,-0.0922
12,AATGGTAG,0.151
13,CCAATTAC,0.0536
14,ACATACAG,0.0964
15,GAGACTAC,-0.116
16,AAGACTGA,-0.0531
17,CCGAAAAC,0.0713
18,CCCTTGAA,0.166
19,ATCCACCG,-0.0309
20,TAAGGAGA,-0.0683
21,ACCGCTAT,-0.035
22,CCACCTGG,-0.215
23,ATTTGTGC,0.0437
24,CGTGGTAA,-0.134
25,ATGTTTCG,0.0942

row,Sequence,PBM E-score
1,AGAGCCTG,-0.243
2,GCAATGCA,0.134
3,ACTGGTTG,0.113
4,ATCAACGG,0.0274
5,CCTATCAG,-0.0557
6,AGCCGATC,0.129
7,CAGATACC,-0.0393
8,GAAAATGC,0.0631
9,AGTCAGAC,-0.0122
10,AACCCCTA,0.25
11,GCCAGCGC,-0.133
12,ACTCGTAG,-0.0129
13,AGACCGCG,0.063
14,ACAATTAC,0.103
15,TCTAAGAA,0.0944
16,ATACTTGA,-0.105
17,AGAGATAG,-0.042
18,GCCGGGCA,-0.161
19,AAGGTACG,0.00371
20,ACTTTGGG,0.0184
21,GTGAATGA,0.0214
22,CAGACTGC,-0.142
23,ACGTTTAC,-0.0273
24,ATTCCCGA,-0.0402
25,AATTAAAA,0.126

# In a second layout: results already given
row	Sequence	PBM E-score
20	CATCGTGC	-0.0212
21	ATCCCGCA	0.08
22	AACCGTCG	-0.151
23	CCTATGCG	0.0257
24	GTCCTTGA	-0.221
25	AAAAGCGA	0.124
1	ATGCCCCC	-0.222
2	AACCCCCC	-0.386
3	CTAACTGC	-0.0704
4	CGCAGAGC	-0.0583
5	GCATCTTA	0.199
6	ACCTACAG	0.169
7	CTCCGTGA	-0.0834
8	GTACTAAC	0.0447
9	CATCAAGG	-0.126
10	GTCGCTGA	-0.0768
11	GACCACAA	-0.0922
12	AATGGTAG	0.151
13	CCAATTAC	0.0536
14	ACATACAG	0.0964
15	GAGACTAC	-0.116
16	AAGACTGA	-0.0531
17	CCGAAAAC	0.0713
18	CCCTTGAA	0.166
19	ATCCACCG	-0.0309
20	TAAGGAGA	-0.0683
21	ACCGCTAT	-0.035
22	CCACCTGG	-0.215
23	ATTTGTGC	0.0437
24	CGTGGTAA	-0.134
25	ATGTTTCG	0.0942
1	AGAGCCTG	-0.243
2	GCAATGCA	0.134
3	ACTGGTTG	0.113
4	ATCAACGG	0.0274
5	CCTATCAG	-0.0557
6	AGCCGATC	0.129
7	CAGATACC	-0.0393
8	GAAAATGC	0.0631
9	AGTCAGAC	-0.0122
10	AACCCCTA	0.25
11	GCCAGCGC	-0.133
12	ACTCGTAG	-0.0129
13	AGACCGCG	0.063
14	ACAATTAC	0.103
15	TCTAAGAA	0.0944
16	ATACTTGA	-0.105
17	AGAGATAG	-0.042
18	GCCGGGCA	-0.161
19	AAGGTACG	0.00371
20	ACTTTGGG	0.0184
21	GTGAATGA	0.0214
22	CAGACTGC	-0.142
23	ACGTTTAC	-0.0273

# Additional records.

row,Sequence,PBM E-score
1,CATACACA,-0.0317
2,TGTTTTAA,0.078
3,CGAATGGA,0.141
4,AATGAATG,0.13
5,CTTAGAAC,0.0319
6,CATTAGAG,0.06
7,CCTCGGTC,-0.222
8,CTAAAACA,-0.0868
9,AGACTCAA,-0.0795
10,ATGTCGAA,0.147
11,ACCCACCA,0.125
12,CATCCGGA,-0.0711
13,TACACTCA,0.109
14,GGGGCGGA,-0.138
15,AGTAGTCC,0.0411
16,ACCACGAT,0.192
17,GCTCGTGA,-0.214
18,AATTCTTC,0.0503
19,CTCTAGTA,-0.194
20,CTCTAACA,-0.0417
21,CTGAAGGA,-0.0763
22,CATTCTGG,-0.0394
23,AAGTGGCG,0.0544
24,CGATATGC,0.0739
25,GGTTCTAA,0.0104

row,Sequence,PBM E-score
1,CATTACAC,0.104
2,CCTCTTTC,-0.184
3,GCGTGAGC,0.142
4,CAGTTTGG,-0.114
5,GTCCACCA,-0.0195
6,ATCCAGGA,-0.0938
7,CACTACGC,-0.241
8,GAGCAAAA,-0.0339
9,CTCCCTCC,-0.122
10,CAACTGCG,-0.0485
11,TGACTACA,-0.154
12,AACCATAC,-0.0969
13,ACATTCGG,-0.0241
14,GAACAGCC,-0.0894
15,CAGGTAGG,-0.0897
16,AGAGTCAC,-0.0604
17,ACTAGTAA,0.036
18,CACTTGGA,0.0538
19,AGGCCCTA,-0.021
20,AGATACTA,0.0761
21,GACTGAAA,0.0848
22,AGCCATCA,-0.00157
